Reference: publication doi:10.1101/2025.10.30.684516

By UniProt entry, the sequences of proteins in these tests, tags left out.
UniProt P08670: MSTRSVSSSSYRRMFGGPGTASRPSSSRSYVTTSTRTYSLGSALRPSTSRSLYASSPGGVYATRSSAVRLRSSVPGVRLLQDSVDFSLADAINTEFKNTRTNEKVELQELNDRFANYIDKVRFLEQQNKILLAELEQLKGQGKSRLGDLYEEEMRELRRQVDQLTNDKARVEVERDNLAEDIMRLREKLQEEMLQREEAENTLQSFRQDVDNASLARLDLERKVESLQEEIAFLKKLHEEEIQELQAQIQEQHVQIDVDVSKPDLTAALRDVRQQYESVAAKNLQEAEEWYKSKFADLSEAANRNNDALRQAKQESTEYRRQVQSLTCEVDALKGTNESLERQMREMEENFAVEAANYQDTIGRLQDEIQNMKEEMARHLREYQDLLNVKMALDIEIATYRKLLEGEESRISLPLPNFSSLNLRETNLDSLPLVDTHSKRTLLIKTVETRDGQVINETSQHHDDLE

B1: RAB9A (protein, UniProt P51151 1-201)
chain: MAGKSSLFKVILLGDGGVGKSSLMNRYVTNKFDTQLFHTIGVEFLNKDLEVDGHFVTMQIWDTAGQERFRSLRTPFYRGSDCCLLTFSVDDSQSFQNLSNWKKEFIYYADVKEPESFPFVILGNKIDISERQVSTEEAQAWCRDNGDYPYFETSAKDATNVAAAFEEAVRRVLATEDRSDHLIQTDTVNLHRKPKPSSSCC
B2: LAS1L (protein, UniProt Q9Y4W2 1-734)
chain: MSWESGAGPGLGSQGMDLVWSAWYGKCVKGKGSLPLSAHGIVVAWLSRAEWDQVTVYLFCDDHKLQRYALNRITVWRSRSGNELPLAVASTADLIRCKLLDVTGGLGTDELRLLYGMALVRFVNLISERKTKFAKVPLKCLAQEVNIPDWIVDLRHELTHKKMPHINDCRRGCYFVLDWLQKTYWCRQLENSLRETWELEEFREGIEEEDQEEDKNIVVDDITEQKPEPQDDGKSTESDVKADGDSKGSEEVDSHCKKALSHKELYERARELLVSYEEEQFTVLEKFRYLPKAIKAWNNPSPRVECVLAELKGVTCENREAVLDAFLDDGFLVPTFEQLAALQIEYEDGQTEVQRGEGTDPKSHKNVDLNDVLVPKPFSQFWQPLLRGLHSQNFTQALLERMLSELPALGISGIRPTYILRWTVELIVANTKTGRNARRFSAGQWEARRGWRLFNCSASLDWPRMVESCLGSPCWASPQLLRIIFKAMGQGLPDEEQEKLLRICSIYTQSGENSLVQEGSEASPIGKSPYTLDSLYWSVKPASSSFGSEAKAQQQEEQGSVNDVKEEEKEEKEVLPDQVEEEEENDDQEEEEEDEDDEDDEEEDRMEVGPFSTGQESPTAENARLLAQKRGALQGSAWQVSSEDVRWDTFPLGRMPGQTEDPAELMLENYDTMYLLDQPVLEQRLEPSTCKTDTLGLSCGVGSGNCSNSSSSNFEGLLWSQGQLHGLKTGLQLF
B3: DAZAP1 (protein, UniProt Q96EP5 1-407)
chain: MNNSGADEIGKLFVGGLDWSTTQETLRSYFSQYGEVVDCVIMKDKTTNQSRGFGFVKFKDPNCVGTVLASRPHTLDGRNIDPKPCTPRGMQPERTRPKEGWQKGPRSDNSKSNKIFVGGIPHNCGETELREYFKKFGVVTEVVMIYDAEKQRPRGFGFITFEDEQSVDQAVNMHFHDIMGKKVEVKRAEPRDSKSQAPGQPGASQWGSRVVPNAANGWAGQPPPTWQQGYGPQGMWVPAGQAIGGYGPPPAGRGAPPPPPPFTSYIVSTPPGGFPPPQGFPQGYGAPPQFSFGYGPPPPPPDQFAPPGVPPPPATPGAAPLAFPPPPSQAAPDMSKPPTAQPDFPYGQYAGYGQDLSGFGQGFSDPSQQPPSYGGPSVPGSGGPPAGGSGFGRGQNHNVQGFHPYRR
B4: GBE1 (protein, UniProt Q04446 1-702)
chain: MAAPMTPAARPEDYEAALNAALADVPELARLLEIDPYLKPYAVDFQRRYKQFSQILKNIGENEGGIDKFSRGYESFGVHRCADGGLYCKEWAPGAEGVFLTGDFNGWNPFSYPYKKLDYGKWELYIPPKQNKSVLVPHGSKLKVVITSKSGEILYRISPWAKYVVREGDNVNYDWIHWDPEHSYEFKHSRPKKPRSLRIYESHVGISSHEGKVASYKHFTCNVLPRIKGLGYNCIQLMAIMEHAYYASFGYQITSFFAASSRYGTPEELQELVDTAHSMGIIVLLDVVHSHASKNSADGLNMFDGTDSCYFHSGPRGTHDLWDSRLFAYSSWEILRFLLSNIRWWLEEYRFDGFRFDGVTSMLYHHHGVGQGFSGDYSEYFGLQVDEDALTYLMLANHLVHTLCPDSITIAEDVSGMPALCSPISQGGGGFDYRLAMAIPDKWIQLLKEFKDEDWNMGDIVYTLTNRRYLEKCIAYAESHDQALVGDKSLAFWLMDAEMYTNMSVLTPFTPVIDRGIQLHKMIRLITHGLGGEGYLNFMGNEFGHPEWLDFPRKGNNESYHYARRQFHLTDDDLLRYKFLNNFDRDMNRLEERYGWLAAPQAYVSEKHEGNKIIAFERAGLLFIFNFHPSKSYTDYRVGTALPGKFKIVLDSDAAEYGGHQRLDHSTDFFSEAFEHNGRPYSLLVYIPSRVALILQNVDLPN
B5: ATXN2L (protein, UniProt Q8WWM7 1-1075)
chain: MLKPQPLQQPSQPQQPPPTQQAVARRPPGGTSPPNGGLPGPLATSAAPPGPPAAASPCLGPVAAAGSGLRRGAEGILAPQPPPPQQHQERPGAAAIGSARGQSTGKGPPQSPVFEGVYNNSRMLHFLTAVVGSTCDVKVKNGTTYEGIFKTLSSKFELAVDAVHRKASEPAGGPRREDIVDTMVFKPSDVMLVHFRNVDFNYATKDKFTDSAIAMNSKVNGEHKEKVLQRWEGGDSNSDDYDLESDMSNGWDPNEMFKFNEENYGVKTTYDSSLSSYTVPLEKDNSEEFRQRELRAAQLAREIESSPQYRLRIAMENDDGRTEEEKHSAVQRQGSGRESPSLASREGKYIPLPQRVREGPRGGVRCSSSRGGRPGLSSLPPRGPHHLDNSSPGPGSEARGINGGPSRMSPKAQRPLRGAKTLSSPSNRPSGETSVPPPPAVGRMYPPRSPKSAAPAPISASCPEPPIGSAVPTSSASIPVTSSVSDPGVGSISPASPKISLAPTDVKELSTKEPGRTLEPQELARIAGKVPGLQNEQKRFQLEELRKFGAQFKLQPSSSPENSLDPFPPRILKEEPKGKEKEVDGLLTSEPMGSPVSSKTESVSDKEDKPPLAPSGGTEGPEQPPPPCPSQTGSPPVGLIKGEDKDEGPVAEQVKKSTLNPNAKEFNPTKPLLSVNKSTSTPTSPGPRTHSTPSIPVLTAGQSGLYSPQYISYIPQIHMGPAVQAPQMYPYPVSNSVPGQQGKYRGAKGSLPPQRSDQHQPASAPPMMQAAAAAGPPLVAATPYSSYIPYNPQQFPGQPAMMQPMAHYPSQPVFAPMLQSNPRMLTSGSHPQAIVSSSTPQYPSAEQPTPQALYATVHQSYPHHATQLHAHQPQPATTPTGSQPQSQHAAPSPVQHQAGQAPHLGSGQPQQNLYHPGALTGTPPSLPPGPSAQSPQSSFPQPAAVYAIHHQQLPHGFTNMAHVTQAHVQTGITAAPPPHPGAPHPPQVMLLHPPQSHGGPPQGAVPQSGVPALSASTPSPYPYIGHPQGEQPGQAPGFPGGADDRIREFSLAGGIWHGRAEGLQVGQDARVLGGE
B6: MYO1E (protein, UniProt Q12965 1-1108)
chain: MGSKGVYQYHWQSHNVKHSGVDDMVLLSKITENSIVENLKKRYMDDYIFTYIGSVLISVNPFKQMPYFGEKEIEMYQGAAQYENPPHIYALADNMYRNMIIDRENQCVIISGESGAGKTVAAKYIMSYISRVSGGGTKVQHVKDIILQSNPLLEAFGNAKTVRNNNSSRFGKYFEIQFSPGGEPDGGKISNFLLEKSRVVMRNPGERSFHIFYQLIEGASAEQKHSLGITSMDYYYYLSLSGSYKVDDIDDRREFQETLHAMNVIGIFAEEQTLVLQIVAGILHLGNISFKEVGNYAAVESEEFLAFPAYLLGINQDRLKEKLTSRQMDSKWGGKSESIHVTLNVEQACYTRDALAKALHARVFDFLVDSINKAMEKDHEEYNIGVLDIYGFEIFQKNGFEQFCINFVNEKLQQIFIELTLKAEQEEYVQEGIRWTPIEYFNNKIVCDLIENKVNPPGIMSILDDVCATMHAVGEGADQTLLQKLQMQIGSHEHFNSWNQGFIIHHYAGKVSYDMDGFCERNRDVLFMDLIELMQSSELPFIKSLFPENLQADKKGRPTTAGSKIKKQANDLVSTLMKCTPHYIRCIKPNETKKPRDWEESRVKHQVEYLGLKENIRVRRAGYAYRRIFQKFLQRYAILTKATWPSWQGEEKQGVLHLLQSVNMDSDQFQLGRSKVFIKAPESLFLLEEMRERKYDGYARVIQKSWRKFVARKKYVQMREEASDLLLNKKERRRNSINRNFIGDYIGMEEHPELQQFVGKREKIDFADTVTKYDRRFKGVKRDLLLTPKCLYLIGREKVKQGPDKGLVKEVLKRKIEIERILSVSLSTMQDDIFILHEQEYDSLLESVFKTEFLSLLAKRYEEKTQKQLPLKFSNTLELKLKKENWGPWSAGGSRQVQFHQGFGDLAVLKPSNKVLQVSIGPGLPKNSRPTRRNTTQNTGYSSGTQNANYPVRAAPPPPGYHQNGVIRNQYVPYPHAPGSQRSNQKSLYTSMARPPLPRQQSTSSDRVSQTPESLDFLKVPDQGAAGVRRQTTSRPPPAGGRPKPQPKPKPQVPQCKALYAYDAQDTDELSFNANDIIDIIKEDPSGWWTGRLRGKQGLFPNNYVTKI
B7: AQR (protein, UniProt O60306 1-1485)
chain: MAAPAQPKKIVAPTVSQINAEFVTQLACKYWAPHIKKKSPFDIKVIEDIYEKEIVKSRFAIRKIMLLEFSQYLENYLWMNYSPEVSSKAYLMSICCMVNEKFRENVPAWEIFKKKPDHFPFFFKHILKAALAETDGEFSLHEQTVLLLFLDHCFNSLEVDLIRSQVQQLISLPMWMGLQLARLELELKKTPKLRKFWNLIKKNDEKMDPEAREQAYQERRFLSQLIQKFISVLKSVPLSEPVTMDKVHYCERFIELMIDLEALLPTRRWFNTILDDSHLLVHCYLSNLVRREEDGHLFSQLLDMLKFYTGFEINDQTGNALTENEMTTIHYDRITSLQRAAFAHFPELYDFALSNVAEVDTRESLVKFFGPLSSNTLHQVASYLCLLPTLPKNEDTTFDKEFLLELLVSRHERRISQIQQLNQMPLYPTEKIIWDENIVPTEYYSGEGCLALPKLNLQFLTLHDYLLRNFNLFRLESTYEIRQDIEDSVSRMKPWQSEYGGVVFGGWARMAQPIVAFTVVEVAKPNIGENWPTRVRADVTINLNVRDHIKDEWEGLRKHDVCFLITVRPTKPYGTKFDRRRPFIEQVGLVYVRGCEIQGMLDDKGRVIEDGPEPRPNLRGESRTFRVFLDPNQYQQDMTNTIQNGAEDVYETFNIIMRRKPKENNFKAVLETIRNLMNTDCVVPDWLHDIILGYGDPSSAHYSKMPNQIATLDFNDTFLSIEHLKASFPGHNVKVTVEDPALQIPPFRITFPVRSGKGKKRKDADVEDEDTEEAKTLIVEPHVIPNRGPYPYNQPKRNTIQFTHTQIEAIRAGMQPGLTMVVGPPGTGKTDVAVQIISNIYHNFPEQRTLIVTHSNQALNQLFEKIMALDIDERHLLRLGHGEEELETEKDFSRYGRVNYVLARRIELLEEVKRLQKSLGVPGDASYTCETAGYFFLYQVMSRWEEYISKVKNKGSTLPDVTEVSTFFPFHEYFANAPQPIFKGRSYEEDMEIAEGCFRHIKKIFTQLEEFRASELLRSGLDRSKYLLVKEAKIIAMTCTHAALKRHDLVKLGFKYDNILMEEAAQILEIETFIPLLLQNPQDGFSRLKRWIMIGDHHQLPPVIKNMAFQKYSNMEQSLFTRFVRVGVPTVDLDAQGRARASLCNLYNWRYKNLGNLPHVQLLPEFSTANAGLLYDFQLINVEDFQGVGESEPNPYFYQNLGEAEYVVALFMYMCLLGYPADKISILTTYNGQKHLIRDIINRRCGNNPLIGRPNKVTTVDRFQGQQNDYILLSLVRTRAVGHLRDVRRLVVAMSRARLGLYIFARVSLFQNCFELTPAFSQLTARPLHLHIIPTEPFPTTRKNGERPSHEVQIIKNMPQMANFVYNMYMHLIQTTHHYHQTLLQLPPAMVEEGEEVQNQETELETEEEAMTVQADIIPSPTDTSCRQETPAFQTDTTPSETGATSTPEAIPALSETTPTVVGAVSAPAEANTPQDATSAPEETK
B8: RAP2B (protein, UniProt P61225 1-183)
chain: MREYKVVVLGSGGVGKSALTVQFVTGSFIEKYDPTIEDFYRKEIEVDSSPSVLEILDTAGTEQFASMRDLYIKNGQGFILVYSLVNQQSFQDIKPMRDQIIRVKRYERVPMILVGNKVDLEGEREVSYGEGKALAEEWSCPFMETSAKNKASVDELFAEIVRQMNYAAQPNGDEGCCSACVIL

biological target: VIM-APEX2-GFP (UniProt P08670); experiment: proximity labelling

binding	Binder
binds	B1
binds	B2
binds	B3
binds	B4
binds	B5
binds	B6
binds	B7
binds	B8

Results are given in words; binding and its absence hold for the method and conditions named. Binding seen in cells or lysates may run through a third protein. A yes stands for co-enrichment or nearness to the bait. Other partners may have been found.
